In publication PMC12673148, “Structural basis of protease-activated receptor 2 activation and biased agonism” (Cell Discovery, 2025):
These are yes or no findings as the source states them, for the method shown. For part of these data: Binding seen in cells or lysates may run through a third protein. Some results given as binding are weak or reduced against the parent protein; the word gives no strength.

Protein sequences, listed by entry. Tags and fused reporters are not part of them. Lines headed by an entry give the natural chain unless they say otherwise; changes in a name come on top. Chains listed by the source or under a name are the forms on record and can include a tag or linker. Residues count along the entry.
UniProt P55085: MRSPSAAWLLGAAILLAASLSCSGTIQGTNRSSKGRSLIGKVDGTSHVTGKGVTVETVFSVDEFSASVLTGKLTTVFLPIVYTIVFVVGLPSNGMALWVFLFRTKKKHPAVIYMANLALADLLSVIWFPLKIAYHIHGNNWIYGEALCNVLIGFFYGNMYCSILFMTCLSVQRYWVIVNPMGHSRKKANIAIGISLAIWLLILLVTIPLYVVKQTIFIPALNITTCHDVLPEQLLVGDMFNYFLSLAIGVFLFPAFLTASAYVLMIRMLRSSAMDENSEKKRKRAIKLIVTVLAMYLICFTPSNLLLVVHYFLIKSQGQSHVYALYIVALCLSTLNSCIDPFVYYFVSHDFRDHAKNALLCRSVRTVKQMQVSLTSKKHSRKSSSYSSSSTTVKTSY
PAR2 (residues 37–377) with LgBiT fused to the C-terminus: residues 37-377 of P55085
WT PAR2 (Δ1–48) fused with cpVenus to its C-terminus: residues 49-397 of P55085
UniProt P50148: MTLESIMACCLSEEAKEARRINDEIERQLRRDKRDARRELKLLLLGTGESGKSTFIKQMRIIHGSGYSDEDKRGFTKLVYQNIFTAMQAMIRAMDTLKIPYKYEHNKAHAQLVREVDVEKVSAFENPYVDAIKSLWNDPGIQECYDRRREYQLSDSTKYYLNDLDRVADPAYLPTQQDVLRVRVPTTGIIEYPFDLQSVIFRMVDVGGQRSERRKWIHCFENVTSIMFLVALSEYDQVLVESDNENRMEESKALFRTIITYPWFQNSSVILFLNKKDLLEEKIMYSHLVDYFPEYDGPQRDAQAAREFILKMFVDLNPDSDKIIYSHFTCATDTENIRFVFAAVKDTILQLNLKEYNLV
UniProt Q14344: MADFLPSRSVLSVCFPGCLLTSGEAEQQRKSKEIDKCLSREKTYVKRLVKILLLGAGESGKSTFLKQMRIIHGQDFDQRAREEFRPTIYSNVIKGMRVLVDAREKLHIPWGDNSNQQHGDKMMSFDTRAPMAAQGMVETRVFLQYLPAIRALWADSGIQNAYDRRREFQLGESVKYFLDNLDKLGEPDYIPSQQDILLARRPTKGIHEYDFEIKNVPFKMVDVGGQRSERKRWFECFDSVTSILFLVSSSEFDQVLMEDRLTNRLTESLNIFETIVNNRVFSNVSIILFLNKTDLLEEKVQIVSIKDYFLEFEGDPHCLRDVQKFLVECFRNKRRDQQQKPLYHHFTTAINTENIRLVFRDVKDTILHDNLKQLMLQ

Key:
[1] = target: WT PAR2 (Δ1–48) fused with cpVenus to its C-terminus (human) (UniProt P55085); assay: FRET or BRET; BRET0 Gα recruitment assay in AD293 cells transfected with PAR2 (Δ1–48)-cpVenus, Gα-Nluc, Gβ and Gγ; signal after addition of the TL ligand; ratio 535 nm/450 nm
[2] = target: PAR2 (residues 37–377) with LgBiT fused to the C-terminus (human) (UniProt P55085); assay: cryo-EM structure; single-particle cryo-EM of PAR2/G protein complexes coexpressed in Sf9 with NanoBiT tethering (PAR2-LgBiT, Gβ1-HiBiT), solubilised in LMNG/CHS; 20 mM HEPES pH 7.5, 150 mM NaCl, LMNG/GDN/CHS; Nb35 added to the Gq complex, scFv16 coexpressed for the G13 complex; both purified

Molecule: Gαq-Nluc (from UniProt P50148 1-359)
- binding [1]: binds

Molecule: Gα13-Nluc (from UniProt Q14344 1-377)
- binding [1]: binds

Molecule: SLIGKV [tethered ligand (TL) of PAR2, residues 37–42]
- binding [2]: binds
